Source: patent publication US20150132305A1
Residue numbers refer to the chain shown, from its start. These are yes or no findings as the source states them, for the method shown. Some results given as binding are weak or reduced against the parent protein; the word gives no strength. For some of these results: Sequences can lack the tags named with a protein.

Sequences of proteins named here, by UniProt entry; tags and fusion partners are left off. Residues count along the entry.
UniProt Q9ULB5, residues 48-84: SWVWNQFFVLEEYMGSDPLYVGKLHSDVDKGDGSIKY

T1: recombinant Cad-11 EC1 human IgG1 fusion protein (R&D Systems Cat. No. 1790-CA-050) (human) (UniProt P55287)
T1 sequence: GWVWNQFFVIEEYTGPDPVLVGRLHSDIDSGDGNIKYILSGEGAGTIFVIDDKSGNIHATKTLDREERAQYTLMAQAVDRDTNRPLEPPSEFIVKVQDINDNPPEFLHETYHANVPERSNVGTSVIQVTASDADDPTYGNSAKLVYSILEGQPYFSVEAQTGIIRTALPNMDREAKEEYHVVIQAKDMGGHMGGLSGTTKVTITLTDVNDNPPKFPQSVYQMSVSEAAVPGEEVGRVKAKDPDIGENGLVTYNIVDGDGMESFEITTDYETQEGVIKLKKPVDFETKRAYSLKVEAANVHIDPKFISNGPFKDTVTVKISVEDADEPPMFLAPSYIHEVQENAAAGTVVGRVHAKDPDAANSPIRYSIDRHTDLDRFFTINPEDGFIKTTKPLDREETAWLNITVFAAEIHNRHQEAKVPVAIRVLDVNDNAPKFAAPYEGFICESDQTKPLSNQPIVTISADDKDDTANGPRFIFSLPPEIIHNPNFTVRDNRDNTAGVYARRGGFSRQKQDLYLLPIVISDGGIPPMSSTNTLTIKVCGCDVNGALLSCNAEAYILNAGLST

T2: Cad-18 37-mer peptide linked to BSA (UniProt Q13634)
T2 sequence (peptide, linked to BSA, looked up): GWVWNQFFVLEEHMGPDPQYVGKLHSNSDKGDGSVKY

T3: Cad-20 37-mer peptide linked to BSA (UniProt Q9HBT6)
T3 sequence (peptide, linked to BSA, looked up): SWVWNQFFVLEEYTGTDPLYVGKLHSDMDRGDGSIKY

T4: Cad-24 37-mer peptide linked to BSA (UniProt Q86UP0)
T4 sequence (peptide, linked to BSA, looked up): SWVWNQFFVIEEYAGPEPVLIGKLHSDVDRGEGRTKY

T5: Cad-7 37-mer peptide linked to BSA (UniProt Q9ULB5)
T5 sequence (peptide, linked to BSA, looked up): T3 sequence (peptide, linked to BSA, looked up) with T14M, T16S, M28V, R30K

T6: Cad-8 37-mer peptide linked to BSA (UniProt P55286)
T6 sequence (peptide, linked to BSA, looked up): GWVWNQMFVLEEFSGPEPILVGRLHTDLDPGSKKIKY

T7: Cad-9 37-mer peptide linked to BSA (UniProt Q9ULB4)
T7 sequence (peptide, linked to BSA, looked up): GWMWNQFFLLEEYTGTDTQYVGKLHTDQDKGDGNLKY

T8: recombinant his-tagged human Cad-11 (R&D Systems) (human) (UniProt P55287)
T8 sequence: T1 sequence

B1: SDP061 humanized anti-Cad-11 EC1 antibody (Vκ2/VH1) (antibody, IgG4, V domains shown)
VH: EVQLVQSGPELKKPGASVKISCKASGYSFTGYFMNWVKQAHGQGLEWIGRINPYTGDTFYNQKFKGRATLTVDKSSSTAYMELVSLSSEDSAVYYCGRLGSRYWYFDVWGQGTTVTVSS
VL: DVLMTQTPLSSPVTLGQPASISCRSSQSIIHSNGNTYLEWYLQKPGQSPQLLIYKVSNRFSGVPDRFSGSGSGTDFTLKISRVEAEDVGVYYCFQGSHVPWTFGQGTKLEIK
B2: SDP071 humanized anti-Cad-11 EC1 antibody (Vκ2/VH2) (antibody, IgG4, V domains shown)
VH: B1 VH with P9A, L11V, H41P, S76T, V84S, S87R, S91T
VL: B1 VL
B3: SDP081 humanized anti-Cad-11 EC1 antibody (Vκ2/VH3) (antibody, IgG4, V domains shown)
VH: B1 VH with P9A, L11V, K38R, H41P, S76T, V84S, S87R, S91T
VL: B1 VL
B4: SDP091 humanized anti-Cad-11 EC1 antibody (Vκ2/VH4) (antibody, IgG4, V domains shown)
VH: B1 VH with P9A, L11V, I20V, K38R, H41P, L70I, S76T, V84S, S87R, S91T
VL: B1 VL
B5: SDP101 humanized anti-Cad-11 EC1 antibody (Vκ2/VH5) (antibody, IgG4, V domains shown)
VH: EVQLVQSGAEVKKPGASVKVSCKASGYSFTGYFMNWVRQAPGQGLEWIGRINPYTGDTFYNQKFKGRVTITVDKSTSTAYMELSSLRSEDTAVYYCGRLGSRYWYFDVWGQGTTVTVSS
VL: B1 VL
B6: SDP111 humanized anti-Cad-11 EC1 antibody (Vκ3/VH1) (antibody, IgG4, V domains shown)
VH: B1 VH
VL: B1 VL with L3V
B7: SDP121 humanized anti-Cad-11 EC1 antibody (Vκ3/VH2) (antibody, IgG4, V domains shown)
VH: B5 VH with V20I, R38K, V68A, I70L
VL: B1 VL with L3V
B8: SDP131 humanized anti-Cad-11 EC1 antibody (Vκ3/VH3) (antibody, IgG4, V domains shown)
VH: B5 VH with V20I, V68A, I70L
VL: B1 VL with L3V
B9: SDP141 humanized anti-Cad-11 EC1 antibody (Vκ3/VH4) (antibody, IgG4, V domains shown)
VH: B5 VH with V68A
VL: B1 VL with L3V
B10: SDP151 humanized anti-Cad-11 EC1 antibody (Vκ3/VH5) (antibody, IgG4, V domains shown)
VH: B5 VH
VL: B1 VL with L3V
B11: SDP051 humanized anti-Cad-11 EC1 antibody (Vκ1/VH5) (antibody, IgG4, V domains shown)
VH: B5 VH
VL: B1 VL with S68T
B12: SDP011 humanized anti-Cad-11 EC1 antibody (Vκ1/VH1) (antibody, IgG4, V domains shown)
VH: B1 VH
VL: B1 VL with S68T
B13: SDP021 humanized anti-Cad-11 EC1 antibody (Vκ1/VH2) (antibody, IgG4, V domains shown)
VH: B5 VH with V20I, R38K, V68A, I70L
VL: B1 VL with S68T
B14: SDP031 humanized anti-Cad-11 EC1 antibody (Vκ1/VH3) (antibody, IgG4, V domains shown)
VH: B5 VH with V20I, V68A, I70L
VL: B1 VL with S68T
B15: SDP041 humanized anti-Cad-11 EC1 antibody (Vκ1/VH4) (antibody, IgG4, V domains shown)
VH: B5 VH with V68A
VL: B1 VL with S68T

Molecular target: T1, recombinant Cad-11 EC1 human IgG1 fusion protein (R&D Systems Cat. No. 1790-CA-050) (human)
Assay: competition ELISA

binding, binds:
B1
B2
B3
B4
B5
B6
B7
B8
B9
B10
B11
B12
B13
B14
B15

Molecular target: T2, Cad-18 37-mer peptide linked to BSA
Assay: ELISA, BSA-coupled 37-mer cadherin peptide coated at 500 ng/ml, A450

binding, binds:
B2
B3
B4
B5
B6
B7
B8
B9
B10
B12
B13
B14
B15

Molecular target: T3, Cad-20 37-mer peptide linked to BSA
Assay: as above

binding, binds:
B1
B2
B3
B4
B5
B6
B7
B8
B9
B10
B12
B13
B14
B15

Molecular target: T4, Cad-24 37-mer peptide linked to BSA
Assay: as above

binding, binds:
B1
B2
B3
B4
B5
B6
B7
B8
B9
B10
B12
B13
B14
B15

Molecular target: T5, Cad-7 37-mer peptide linked to BSA
Assay: as above

binding, binds:
B3
B4
B5
B6
B7
B8
B9
B10
B12
B13
B14
B15

Molecular target: T6, Cad-8 37-mer peptide linked to BSA
Assay: as above

binding, binds:
B1
B2
B3
B4
B5
B6
B7
B8
B9
B10
B12
B13
B14
B15

Molecular target: T7, Cad-9 37-mer peptide linked to BSA
Assay: as above

binding, binds:
B3
B4
B5
B7
B8
B9
B10
B15

Molecular target: T1, recombinant Cad-11 EC1 human IgG1 fusion protein (R&D Systems Cat. No. 1790-CA-050) (human)
Assay: competition ELISA on coated recombinant human Cad-11 EC1 fusion protein against biotinylated SYN0012 (0.1 µg/ml)

binding, binds:
B11
B12
B13
B14
B15

Molecular target: T8, recombinant his-tagged human Cad-11 (R&D Systems) (human)
Assay: SPR, rhCad-11 immobilised on the chip, SDP051 injected for 360 s (12.5 nM to 0.195 nM per paragraph 266; concentrations not printed on the sheet)

binding, binds:
B11

Molecular target: T1, recombinant Cad-11 EC1 human IgG1 fusion protein (R&D Systems Cat. No. 1790-CA-050) (human)
Assay: competition ELISA: antibody dilution series premixed with 0.1 µg/ml biotinylated SYN0012/H1M1, plate coated with recombinant human Cad-11 EC1 fusion protein, streptavidin-HRP, OD450

binding, binds:
B1
B2
B3
B4
B5
B6
B7
B8
B9
B10
